According to PMC7862700:
This is a selection; strong and weak results do not stand in their true shares. For some of these results: At the low end of the ranking the order means little. The list shows a part of the results. For some of these results: Construct or isoform of the protein are uncertain.

Amino acid sequences for entries named in this document (tags omitted). A change or cut given only in a name is not applied to a line headed by its entry.
UniProt P32519: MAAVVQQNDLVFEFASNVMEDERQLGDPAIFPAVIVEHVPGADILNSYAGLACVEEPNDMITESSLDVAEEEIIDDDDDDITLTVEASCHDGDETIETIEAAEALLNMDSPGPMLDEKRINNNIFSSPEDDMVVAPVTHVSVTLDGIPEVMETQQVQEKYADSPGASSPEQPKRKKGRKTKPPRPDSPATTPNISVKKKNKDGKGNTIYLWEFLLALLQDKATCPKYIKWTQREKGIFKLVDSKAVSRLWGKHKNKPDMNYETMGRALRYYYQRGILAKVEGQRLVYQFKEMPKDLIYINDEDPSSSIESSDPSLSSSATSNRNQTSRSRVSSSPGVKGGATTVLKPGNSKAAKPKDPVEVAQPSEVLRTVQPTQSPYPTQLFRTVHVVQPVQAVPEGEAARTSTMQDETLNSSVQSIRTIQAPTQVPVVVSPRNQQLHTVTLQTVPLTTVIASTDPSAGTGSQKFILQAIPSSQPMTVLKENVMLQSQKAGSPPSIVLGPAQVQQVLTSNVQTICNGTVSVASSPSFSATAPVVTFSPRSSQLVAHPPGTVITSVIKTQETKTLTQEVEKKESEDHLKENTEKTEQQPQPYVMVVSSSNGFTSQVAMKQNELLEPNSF
UniProt P50549: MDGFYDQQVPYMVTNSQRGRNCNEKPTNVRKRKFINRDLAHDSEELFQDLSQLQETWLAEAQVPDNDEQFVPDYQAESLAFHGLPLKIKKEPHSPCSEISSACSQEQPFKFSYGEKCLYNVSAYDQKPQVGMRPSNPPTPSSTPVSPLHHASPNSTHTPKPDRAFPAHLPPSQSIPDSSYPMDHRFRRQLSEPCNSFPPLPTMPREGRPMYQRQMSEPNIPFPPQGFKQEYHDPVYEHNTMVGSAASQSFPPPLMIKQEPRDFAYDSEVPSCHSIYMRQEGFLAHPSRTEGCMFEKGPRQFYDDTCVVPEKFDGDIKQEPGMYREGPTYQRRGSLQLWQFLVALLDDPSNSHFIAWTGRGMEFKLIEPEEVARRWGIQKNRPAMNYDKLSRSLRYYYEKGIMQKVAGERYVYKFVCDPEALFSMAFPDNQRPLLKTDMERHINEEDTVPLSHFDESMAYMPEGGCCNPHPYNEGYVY

Legend:
Test in all cases: DAPPL (digital affinity profiling via proximity ligation, sequencing)
Conditions in all cases: 10 mM Tris-HCl pH 7.5, 50 mM NaCl, 1 mM DTT, 4% glycerol, room temperature, 30 min; GST-TFs on glutathione beads, 16-mer random dsDNA library, 0.1% …; high values mean tight binding; double strand, one strand shown; scale: fold enrichment (6-mer frequency, TF over GST control)
ERG = target: T1, ERG (UniProt P11308)
T1 sequence: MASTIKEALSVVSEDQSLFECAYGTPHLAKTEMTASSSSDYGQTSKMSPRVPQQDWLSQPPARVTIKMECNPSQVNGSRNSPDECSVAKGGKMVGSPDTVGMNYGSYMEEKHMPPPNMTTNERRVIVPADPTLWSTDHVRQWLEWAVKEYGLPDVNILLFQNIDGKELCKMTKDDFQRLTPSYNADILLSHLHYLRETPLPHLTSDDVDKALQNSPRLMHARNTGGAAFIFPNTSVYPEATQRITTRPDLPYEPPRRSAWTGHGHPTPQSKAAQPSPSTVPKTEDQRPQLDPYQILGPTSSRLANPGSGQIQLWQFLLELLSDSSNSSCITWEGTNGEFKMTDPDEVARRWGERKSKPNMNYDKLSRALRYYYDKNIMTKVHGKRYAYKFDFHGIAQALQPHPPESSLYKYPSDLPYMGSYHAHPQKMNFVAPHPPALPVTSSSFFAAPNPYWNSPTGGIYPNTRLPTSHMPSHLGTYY

ELF1 = ELF1 (UniProt P32519)
ELK4 = target: T2, ELK4 (UniProt P28324-2)
T2 sequence: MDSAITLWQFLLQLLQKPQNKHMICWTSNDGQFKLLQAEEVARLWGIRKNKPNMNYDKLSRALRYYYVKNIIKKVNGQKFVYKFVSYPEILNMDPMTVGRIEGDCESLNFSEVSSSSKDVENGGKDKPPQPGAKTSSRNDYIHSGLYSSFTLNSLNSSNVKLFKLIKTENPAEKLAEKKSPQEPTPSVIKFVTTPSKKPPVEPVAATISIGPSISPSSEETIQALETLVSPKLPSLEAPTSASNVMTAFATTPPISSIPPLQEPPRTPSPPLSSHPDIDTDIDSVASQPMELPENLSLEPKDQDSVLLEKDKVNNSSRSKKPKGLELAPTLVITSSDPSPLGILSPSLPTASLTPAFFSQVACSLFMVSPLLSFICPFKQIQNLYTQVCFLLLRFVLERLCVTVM

ETV4 = target: T3, ETV4 (UniProt P43268)
T3 sequence: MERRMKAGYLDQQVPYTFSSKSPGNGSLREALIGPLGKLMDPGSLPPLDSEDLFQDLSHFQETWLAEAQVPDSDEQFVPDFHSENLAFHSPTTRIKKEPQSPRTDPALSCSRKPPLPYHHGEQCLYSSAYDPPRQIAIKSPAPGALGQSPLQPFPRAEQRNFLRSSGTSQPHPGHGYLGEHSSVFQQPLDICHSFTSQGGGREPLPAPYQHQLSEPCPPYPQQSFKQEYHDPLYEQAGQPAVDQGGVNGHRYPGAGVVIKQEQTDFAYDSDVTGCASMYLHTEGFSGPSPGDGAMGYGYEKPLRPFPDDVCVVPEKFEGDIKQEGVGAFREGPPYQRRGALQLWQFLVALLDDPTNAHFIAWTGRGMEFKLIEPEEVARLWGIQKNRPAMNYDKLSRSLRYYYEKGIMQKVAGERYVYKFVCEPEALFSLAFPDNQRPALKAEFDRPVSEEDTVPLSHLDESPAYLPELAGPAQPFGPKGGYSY

ETV1 = ETV1 (UniProt P50549)
ERF = target: T4, ERF (UniProt P50548)
T4 sequence: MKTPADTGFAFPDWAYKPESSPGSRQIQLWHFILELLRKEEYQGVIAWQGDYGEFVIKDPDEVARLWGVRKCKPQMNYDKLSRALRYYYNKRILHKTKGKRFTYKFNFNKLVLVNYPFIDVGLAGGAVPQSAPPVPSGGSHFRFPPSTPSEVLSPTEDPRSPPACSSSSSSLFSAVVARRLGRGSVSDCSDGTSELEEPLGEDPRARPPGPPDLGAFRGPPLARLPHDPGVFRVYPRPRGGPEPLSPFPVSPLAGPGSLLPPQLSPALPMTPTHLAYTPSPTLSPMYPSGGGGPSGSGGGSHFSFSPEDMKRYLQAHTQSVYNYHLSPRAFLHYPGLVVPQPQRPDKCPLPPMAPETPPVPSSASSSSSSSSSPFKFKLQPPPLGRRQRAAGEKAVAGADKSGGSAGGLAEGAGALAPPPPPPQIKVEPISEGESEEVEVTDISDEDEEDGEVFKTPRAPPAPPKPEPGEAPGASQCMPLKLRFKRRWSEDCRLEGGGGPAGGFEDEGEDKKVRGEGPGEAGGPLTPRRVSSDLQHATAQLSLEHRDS

Sequence | binding signal (ERG) | binding signal (ELF1) | binding signal (ELK4) | binding signal (ETV4) | binding signal (ETV1) | binding signal (ERF)
GGCACC | 0.842 | 0.774 | 0.858 | 0.79 | 0.785 | 0.874
GAATGC | 0.937 | 0.995 | 0.91 | 0.963 | 0.917 | 1.04
AGATTA | 0.958 | 0.986 | 1.05 | 0.989 | 0.994 | 0.999
CGCTAA | 0.94 | 0.93 | 0.908 | 0.912 | 0.857 | 0.986
ATTAGA | 0.899 | 0.939 | 0.922 | 0.883 | 0.93 | 0.929
CCGTTA | 0.951 | 0.902 | 0.91 | 0.954 | 0.867 | 0.975
GGGCAT | 0.921 | 0.848 | 0.858 | 0.917 | 0.887 | 0.905
TGCGTC | 0.953 | 0.926 | 0.864 | 0.954 | 0.974 | 0.916
GTTTAG | 0.895 | 0.852 | 0.902 | 0.861 | 0.925 | 0.974
TCGAGT | 0.864 | 0.954 | 0.934 | 1.05 | 0.92 | 0.948
GCAGAA | 0.859 | 0.872 | 0.869 | 0.827 | 0.985 | 0.964
TCAGAC | 0.846 | 0.884 | 0.868 | 0.917 | 0.895 | 0.933
AAGGTC | 0.886 | 0.895 | 0.92 | 0.942 | 0.943 | 0.929
CAGATC | 0.879 | 0.938 | 0.876 | 0.935 | 0.984 | 0.906
GTCTAG | 0.817 | 0.807 | 0.859 | 0.806 | 0.85 | 0.818
TCCAGA | 0.888 | 0.869 | 0.9 | 0.894 | 0.903 | 0.88
GACATG | 0.93 | 0.966 | 0.914 | 0.879 | 0.909 | 0.881
AGTTGC | 0.939 | 0.931 | 1.02 | 0.975 | 0.972 | 0.877
CCAGCA | 0.954 | 0.997 | 0.946 | 0.956 | 0.944 | 0.917
GGATTC | 0.906 | 0.965 | 0.976 | 0.871 | 0.907 | 0.914
GGATCA | 0.835 | 0.779 | 0.846 | 0.785 | 0.829 | 0.823
TCGTTA | 0.901 | 0.973 | 0.917 | 0.987 | 0.824 | 0.947
CGGCAA | 0.933 | 0.922 | 0.801 | 0.952 | 0.92 | 0.967
AACTGT | 0.948 | 1.02 | 0.947 | 0.975 | 0.954 | 0.982
GTAGAA | 0.89 | 0.982 | 0.964 | 0.961 | 0.941 | 0.918
ATTGTG | 0.951 | 0.899 | 0.926 | 0.917 | 0.741 | 1.06
AAGCCG | 0.909 | 0.918 | 0.958 | 0.907 | 0.971 | 0.93

Sequence | binding signal (ERG) | binding signal (ELF1) | binding signal (ELK4) | binding signal (ETV4) | binding signal (ETV1) | binding signal (ERF)
GCTAGA | 0.961 | 1.01 | 0.993 | 0.963 | 0.922 | 
GTACAG | 0.95 | 0.954 | 0.969 | 0.929 | 0.937 | 
GGCAAT | 0.908 | 0.95 | 0.887 | 0.898 | 0.894 | 
AGAGCT | 0.921 | 0.986 | 0.95 | 0.934 | 0.923 | 0.956
TCGAAA | 0.957 | 0.937 | 0.987 | 0.942 | 0.992 | 
TAGCGC | 0.99 | 0.99 | 0.836 | 1.04 | 1.07 | 
ACCAAG | 0.924 | 0.941 | 0.965 | 0.881 | 0.899 | 0.986
GTTCGT | 0.936 | 0.975 | 0.865 | 0.977 | 0.896 | 
GGATTA | 0.793 | 0.832 | 0.893 | 0.821 | 0.792 | 0.848
GTGCTG | 0.777 | 0.875 | 0.995 | 1 | 0.99 | 0.911
AGGGAT | 0.791 | 0.749 | 0.697 | 0.799 | 0.825 | 0.818
TTAGTC | 0.791 | 0.803 | 0.698 | 0.806 | 0.731 | 0.796
GGAATA | 0.954 | 0.933 | 0.879 | 0.922 | 0.908 | 
TATGAG | 0.958 | 0.937 | 0.96 | 0.983 | 0.946 | 
TACGGG | 0.923 | 0.952 | 0.897 | 0.997 | 0.994 | 
AATCGT | 0.902 | 0.833 | 0.94 | 0.894 | 0.909 | 0.84
GTTAGC | 0.879 | 0.972 | 0.977 | 0.941 | 0.913 | 
GCATAC | 0.974 | 0.979 | 0.973 | 0.913 | 0.926 | 0.868
ACGCGA | 0.853 | 0.904 | 0.913 | 0.866 | 0.869 | 0.898
CTGTAG | 0.931 | 0.918 | 0.996 | 1 | 0.969 | 
TGATTG | 1.08 | 1.06 | 0.97 | 1.09 | 1.1 | 
AGTTTT | 0.94 | 0.963 | 0.958 | 0.971 | 0.963 | 
AGAAAC | 0.924 | 0.989 | 0.967 | 0.915 | 0.981 | 
GAAAGG | 0.891 | 0.922 | 0.777 | 0.957 | 0.972 | 
GCGAAC | 0.904 | 0.91 | 0.827 | 0.887 | 0.908 | 
ACATAG | 0.976 | 1.07 | 0.978 | 0.999 | 0.997 | 
CTAGGG | 0.86 | 0.87 | 0.928 | 0.928 | 0.848 | 0.9

Shown as labelled records: entries from further up
AATCGT
  binding signal (ERG): 0.902
  binding signal (ELF1): 0.833
  binding signal (ELK4): 0.94
  binding signal (ETV4): 0.894
  binding signal (ETV1): 0.909
  binding signal (ERF): 0.84
GTTAGC
  binding signal (ERG): 0.879
  binding signal (ELF1): 0.972
  binding signal (ELK4): 0.977
  binding signal (ETV4): 0.941
  binding signal (ETV1): 0.913
